PubChem BioAssay AID1259308, NCATS, 2017

Assay: 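Genes whose loss raises luciferase production in HEK293 cells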 (primary screen)
Cell system: human HEK293 embryonic kidney cells stably expressing firefly luciferase (HEK-CMV-Luc2-Hygro)
Reagent: single siRNA against human genes, 0.8 pmol siRNA per well
Timing: 72 h
Read-out: 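Luciferase light (ONE-Glo) measured on one replicate plate set and viability (CellTiter-Glo) on the other, scaled to a negative control siRNA, with robust z-scores and luciferase per cell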
Scale: total luciferase, z-score: higher = more reporter protein produced
Call rule: 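Active when the median/MAD z-score for overall luciferase is greater than 3; a gene was taken forward for validation with new siRNAs if at least two of its three siRNAs passed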
Calls: active = raised luciferase; inactive = no rise
The whole screen tested about 59,000 reagents; this is a part drawn at random. Over the whole deposit, about 1,510 (2.6%) are marked active. 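Calls use total luciferase alone and ignore viability, so some active siRNAs may act by altering cell number.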 The numbers tell different reagents against one gene apart. Further read-outs or replicates are left out here. Reagent sequences are not shown.

Silencing of SASH3 #1 resulted in: total luciferase, z-score 0.161; inactive.
Silencing of SASH3 #2 came out at: total luciferase, z-score -0.759; inactive.
After knock-down of SASH3 #3 the results were total luciferase, z-score -1.74; inactive.
For TRDMT1 #1, the entry reads total luciferase, z-score 0.214; inactive.
Against TRDMT1 #2, the entry reads total luciferase, z-score 0.4; inactive.
Silencing of TRDMT1 #3 gave: total luciferase, z-score 0.833; inactive.
KAT14 #1 scored total luciferase, z-score -0.523; inactive.
Depletion of KAT14 #2 gave: total luciferase, z-score 0.274; inactive.
Against KAT14 #3 the deposit lists total luciferase, z-score -0.514; inactive.
For MORN3 #1, the entry reads total luciferase, z-score -1.93; inactive.
With knock-down of MORN3 #2 the results were total luciferase, z-score 0.619; inactive.
MORN3 #3 gave total luciferase, z-score -0.206; inactive.
DCAF1 #1 showed total luciferase, z-score -1.35; inactive.
Against DCAF1 #2, the values are total luciferase, z-score 0.0934; inactive.
DCAF1 #3 showed total luciferase, z-score 0.0629; inactive.
Knock-down of RPL23AP82 #1 gave: total luciferase, z-score -1.98; inactive.
Silencing of RPL23AP82 #2 came out at: total luciferase, z-score -0.897; inactive.
RPL23AP82 #3 scored total luciferase, z-score 2.01; inactive.

Part of the list above in another layout:
{"gene symbol":"KAT14","reagent no.":1,"total luciferase, z-score":-0.523,"Call":"inactive"}
{"gene symbol":"KAT14","reagent no.":2,"total luciferase, z-score":0.274,"Call":"inactive"}
{"gene symbol":"KAT14","reagent no.":3,"total luciferase, z-score":-0.514,"Call":"inactive"}

Further reagents follow.
For RAB34 #1 the deposit lists total luciferase, z-score -1.18; inactive.
Knock-down of RAB34 #2 gave: total luciferase, z-score 0.707; inactive.
Against RAB34 #3, the entry reads total luciferase, z-score -2.03; inactive.
Against FBXO8 #1 the deposit lists total luciferase, z-score 0.00168; inactive.
With knock-down of FBXO8 #2 the results were total luciferase, z-score -1.26; inactive.
FBXO8 #3 scored total luciferase, z-score 2.04; inactive.
With knock-down of HMX1 #1 the results were total luciferase, z-score 0.118; inactive.
For HMX1 #2, the values are total luciferase, z-score -0.428; inactive.
For HMX1 #3, the entry reads total luciferase, z-score 1.48; inactive.
Against MRPS10 #1 the deposit lists total luciferase, z-score 0.662; inactive.
Knock-down of MRPS10 #2 resulted in: total luciferase, z-score 1.35; inactive.
MRPS10 #3 scored total luciferase, z-score -0.0679; inactive.
PRKAR2B #1 showed total luciferase, z-score -0.975; inactive.
With knock-down of PRKAR2B #2, the screen gave total luciferase, z-score -0.537; inactive.
With knock-down of PRKAR2B #3, the screen gave total luciferase, z-score -0.159; inactive.
Silencing of HK2 #1 resulted in: total luciferase, z-score -0.297; inactive.
After knock-down of HK2 #2, the screen gave total luciferase, z-score 0.35; inactive.
Knock-down of HK2 #3 came out at: total luciferase, z-score -1.01; inactive.
SNRNP200 #1 showed total luciferase, z-score 2.49; inactive.
Depletion of SNRNP200 #2 resulted in: total luciferase, z-score 8.01; active.
Depletion of SNRNP200 #3 resulted in: total luciferase, z-score 2.38; inactive.
With knock-down of NOP14 #1 the results were total luciferase, z-score -1.69; inactive.
With knock-down of NOP14 #2, the screen gave total luciferase, z-score -0.729; inactive.
Against NOP14 #3, the values are total luciferase, z-score -1.1; inactive.
